Some entries share one result that the patent states for a list of compounds.
Test: Human plasma stability
Type: in vitro ADME

With N#Cc1c(-c2ccc(O)c(O)c2)cc(-c2ccc(N)cc2)[nH]c1=N [Compound 14, 6-(4-aminophenyl)-4-(3,4-dihydroxyphenyl)-2-imino-1,2-dihydropyridine-3-carbonitrile] the “Human plasma stability (% remaining after 3 hours)” value was > 99%.

From US20250313530A1, “SMALL MOLECULE INHIBITORS OF INTERLEUKIN-4 AND USES THEREOF” (Trustees of Boston University, priority 2024, published 2025)
